# In all, about 59,000 compounds went through this assay and about 35 (0.06%) were called active. This list was built around the results that the source calls inconclusive (neither active nor inactive); the mix of calls is not that of the screen. Rule as the data show it: active = max dye-equivalent concentration above about 10 nM; inconclusive = between about 1.1 nM and that limit; inactive = weaker than that.
# Test: qHTS Assay for Spectroscopic Profiling in Texas Red Spectral Region
# Details: Compound fluorescence, Texas Red channel, 547/618 nm; stronger effect = higher value
# Outline: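 Fluorescence at ex 547/em 618 nm, normalized against an on-plate Texas Red standard series to give dye-equivalent concentration per compound concentration. Buffer 100 mM Tris, pH 8.0; 15 min RT incubation before CCD imaging.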
row,Compound,max dye-equivalent concentration
1,CC(C)[C@@H]1O[C@H](/C=C\c2ccccc2)OCC1(C)C,inactive
2,CCOCCCNc1nc2c(c(=O)n(C)c(=O)n2C)n1CCCc1ccccc1,inconclusive: 2.5 nM
3,Cc1ccccc1S(=O)(=O)Cc1ccc(C(=O)NCCN2CCN(Cc3ccccc3)CC2)o1,inconclusive: 1.1 nM
4,Cc1cccc(C#N)c1NC1=CC(=O)CC(C)(C)C1,inconclusive: 1.4 nM
5,CCc1nnc2sc(-c3cc(-c4ccccc4)nc4ccccc34)nn12,inconclusive: 2.9 nM
6,CCCCNS(=O)(=O)c1ccc2nc(SCC(=O)c3ccc(C#N)cc3)[nH]c2c1,inconclusive: 1.2 nM
7,c1ccc2c(c1)OCC(c1nnc3n1-c1ccccc1SC3)O2 (stereo not given),inconclusive: 1.2 nM
8,N#Cc1cc(C(=O)c2cc(Cl)ccc2O)cn(CC2CCCO2)c1=O (stereo not given),inconclusive: 1.7 nM
9,O=C(NC1CCCCC1)c1noc2c1CCCCC2,inconclusive: 1.4 nM
10,CCNc1nc(NC(C)C)nc(OCCNS(=O)(=O)c2cc(C)ccc2C)n1,inconclusive: 1.1 nM
11,Cc1ccc(CC2CC(=O)N(c3ccc(Cl)cn3)C2=O)cc1 (stereo not given),inconclusive: 1.5 nM
12,CCOC(=O)Cn1c(=O)c2c(nc3n2CCCCN3c2ccc(C)cc2)n(C)c1=O,inconclusive: 1.4 nM
13,CCCn1c(SCc2nc(-c3cccs3)no2)nnc1-c1ccncc1,inconclusive: 1.1 nM
14,Cc1nc2cnc(N3CCN(C)CC3)nc2n(CCc2ccccc2)c1=O,inactive
15,CCc1nc(SCC(=O)Nc2ccccc2C(=O)OC)n[nH]1,inconclusive: 1.2 nM
16,CCOC(=O)c1[nH]c2ccc(F)cc2c1NC(=O)C1=COCCO1,inconclusive: 1.2 nM
17,COc1ccc(CNC(=O)c2cc(-n3cnnc3)ccc2Cl)cc1,inconclusive: 1.6 nM
18,CC1(C)CC[C@]2(C(=O)O)CC[C@]3(C)C(=CC[C@@H]4[C@@]5(C)CC[C@H](O)C(C)(C)[C@@H]5CC[C@@]43C)[C@@H]2C1,inactive
19,Cc1c(/C(O)=C2/C(=O)C(=O)N(CCN3CCOCC3)C2c2cccs2)cnn1-c1ccccc1 (stereo not given),inconclusive: 1.5 nM
20,CCOC(=O)c1cc(C)n(Cc2ccccc2)c1C,inconclusive: 1.2 nM
21,CCC1=C(C)CN(C(=O)NCCc2ccc(S(=O)(=O)NC(=O)NC3CCC(C)CC3)cc2)C1=O (stereo not given),inconclusive: 1.3 nM
22,CCn1c(SCC(=O)Nc2cccc(C(C)=O)c2)nnc1C(C)C,inconclusive: 1.4 nM

row,Compound,max dye-equivalent concentration
1,O=S(=O)(NCCNC/C=C\c1ccc(Br)cc1)c1cccc2cnccc12,inactive
2,CCCCCCOC(=O)CCn1[nH]c(=O)c2ccccc2c1=O,inactive
3,O=S(=O)(NCc1cccnc1)c1cccc2nsnc12,inconclusive: 1.2 nM
4,COc1cccc(-c2cc(NCCc3c[nH]c4ccc(OC)cc34)ncn2)c1,inactive
5,c1ccc(-n2nnc3ccccc32)nc1,inconclusive: 1.7 nM
6,CN1CCN(c2nc3cc(C(F)(F)F)ccc3n3cccc23)CC1,inconclusive: 1.7 nM
7,CN(C)c1ccc(-c2noc(C3CCN(S(=O)(=O)c4cccc(Cl)c4)CC3)n2)cc1,inconclusive: 2.7 nM
8,O=C(NCCN1CCc2ccccc2C1)C1CCN(S(=O)(=O)N2CCC3(CC2)OCCO3)CC1,inconclusive: 1.1 nM
9,CCOc1ccccc1NC(=O)c1cc(S(=O)(=O)N2CCC3(CC2)OCCO3)ccc1F,inconclusive: 1.1 nM
10,Cc1ccc(C(=O)N(CN2CCCC2=O)c2ccccc2)cc1C,inconclusive: 1.1 nM
11,O=C(NCc1ccc2c(c1)OCO2)c1ccc(S(=O)(=O)NCC2CCCO2)cc1 (stereo not given),inconclusive: 2.5 nM
12,CCCCNc1ccc(C(=O)OCCOCCOCCOCCOCCOCCOCCOCCOCCOC)cc1,inconclusive: 1.5 nM
13,CCNC(=O)Cc1ccc(NS(=O)(=O)c2ccc(F)cc2)cc1,inconclusive: 1.2 nM
14,CC(Sc1nnnn1C)C(=O)Nc1ccccc1-c1ccccc1 (stereo not given),inconclusive: 1.2 nM
15,COCCN(C(=O)CNC(=O)c1cccs1)C(C(=O)NC1CCCC1)c1cccs1 (stereo not given),inconclusive: 2 nM
16,COc1cccc(CN2CCN(CC(=O)Nc3ccccc3Cl)CC2)c1,inactive
17,CCOC(=O)c1ccc(NC(=O)CC2OCCN(CC)C2=O)cc1 (stereo not given),inconclusive: 1.6 nM
18,COc1ccc(-c2nnc3ccc(SCC(=O)NCC4CCCO4)nn23)cc1 (stereo not given),inconclusive: 1.2 nM
19,Cc1ccc(-n2ncc3c(=O)n(CC(=O)OCc4ccccc4)cnc32)cc1,inconclusive: 1.4 nM
20,CCOC(=O)C1CCN(C(=O)Cc2c(F)cccc2Cl)CC1,inconclusive: 1.2 nM
21,COc1cc2c(cc1OC)CN(C(=O)c1ccc(OC)c(S(=O)(=O)N3CCOCC3)c1)CC2,inconclusive: 1.5 nM
22,CCOC(=O)C1CCCN(C(=O)C2CCN(S(=O)(=O)c3cccs3)CC2)C1 (stereo not given),inconclusive: 1.7 nM

row,Compound,max dye-equivalent concentration
1,CC1Cc2ccccc2N1C(=O)COC(=O)C1=COCCO1 (stereo not given),inconclusive: 2.2 nM
2,CC1(C)Oc2ccc(C(=O)NC3CC3)cc2N(CC(=O)N2CCOCC2)C1=O,inconclusive: 1.5 nM
3,CCC(=O)NC(c1ccccc1)c1nc2ccccc2[nH]1 (stereo not given),inconclusive: 1.4 nM
4,Cc1cc2cc(CN3C(=O)c4ccccc4C3=O)ccc2n1C,inconclusive: 2.2 nM
5,COCCN1C(=O)C(O)=C(C(C)=O)C1c1ccc(OC)c(OC)c1 (stereo not given),inconclusive: 1.1 nM
6,Cn1c(=O)c2cc(S(=O)(=O)NCCC(=O)N3CC=C(c4ccccc4)CC3)ccc2n(C)c1=O,inconclusive: 2.5 nM
7,CCc1nc(NCc2ccco2)c2oc3ccccc3c2n1,inconclusive: 1.1 nM
8,FC(F)(F)c1cccc(N2CCN(c3nnnn3-c3ccccc3)CC2)c1,inconclusive: 2 nM
9,O=C(CN1CCCCCC1=O)OCc1ncc(-c2ccccc2)o1,inconclusive: 1.7 nM
10,CCOC(=O)c1c(C)[nH]c(C(=O)CSc2ccccc2)c1C,inconclusive: 1.3 nM
11,Cc1ccc(C2c3sc(=O)[nH]c3SC3C(=O)NC(=O)C32)cc1 (stereo not given),inactive
12,CCOC(=O)C1Cc2c([nH]c3ccccc23)CN1 (stereo not given),inconclusive: 1.2 nM
13,O=C(O)CCn1c(C2CCCCC2)nc2ccccc21,inconclusive: 1.6 nM
14,COc1ccccc1N1CCN(C(=O)CSc2nnc(NC(=O)c3ccco3)s2)CC1,inconclusive: 1.2 nM
15,Cc1ccc2[nH]cc(C(=O)CN3CCC4(CC3)OCCO4)c2c1,inconclusive: 1.2 nM
16,O=C(CSc1ncc(-c2ccccc2)nn1)NCc1ccco1,inconclusive: 1.2 nM
17,CCOc1cccc(C2C(C(=O)c3ccc(C)o3)=C(O)C(=O)N2c2nccs2)c1 (stereo not given),inactive
18,CN(C)C1NC(=O)c2cc(-c3ccccc3)sc2N1 (stereo not given),inconclusive: 1.4 nM
19,O=C1c2ccccc2C(=O)N1Cc1nc2ccccc2c(=O)n1CCCN1CCOCC1,inconclusive: 1.1 nM
20,CC(C)Sc1nc2c(c(=O)[nH]c(=O)n2C)n1CCc1ccccc1,inconclusive: 1.5 nM
21,O=C(Nc1ccc(Cl)cn1)C1CCCN1S(=O)(=O)c1ccc(Cl)cc1 (stereo not given),inconclusive: 1.2 nM
22,O=C(CSc1nnnn1-c1ccccc1)N1CCc2ccccc21,inconclusive: 1.1 nM

row,Compound,max dye-equivalent concentration
1,CC(=O)Nc1cccc(NC(=O)CSc2nnnn2Cc2ccccc2)c1,inconclusive: 1.5 nM
2,Cn1cnc(S(=O)(=O)NCc2cccs2)c1,inconclusive: 1.5 nM
3,O=c1[nH]c(N2CCN(c3ccccc3)CC2)nc2c1CCC2,inconclusive: 1.2 nM
4,O=C(CSCCO)N1CCc2ccccc21,inconclusive: 1.4 nM
5,CCOc1ccc(NCCC(=O)c2ccc3c(c2)OCO3)cc1,inconclusive: 1.7 nM
6,COCCn1nnnc1CN1CCN(c2cccc(C(F)(F)F)c2)CC1,inconclusive: 1.6 nM
7,COc1ccccc1CNC(=O)COC(=O)c1ccc(NC(N)=O)cc1,inconclusive: 1.1 nM
8,CN(Cc1ccccc1)C(=O)CN(C1CCCCC1)S(C)(=O)=O,inconclusive: 1.7 nM
9,Fc1ccccc1N1CCN(C(c2ccccn2)c2nnnn2C2CCCCC2)CC1 (stereo not given),inconclusive: 1.4 nM
10,Cn1cccc1C(=O)N1CCC[C@@]2(CCN(C(c3ccccc3)c3ccccc3)C2)C1,inactive
11,COc1cc(C2C(C#N)=C(N)Oc3cc(C)n(CC4CCCO4)c(=O)c32)cc2c1OCO2 (stereo not given),inconclusive: 1.3 nM
12,CN(c1ccc(C(=O)NCc2ccc3c(c2)OCO3)cc1)S(C)(=O)=O,inconclusive: 1.8 nM
13,S=c1oc(-c2ccncc2)nn1CCc1ccncc1,inconclusive: 2.6 nM
14,O=C(Nc1ccc(N2CCOCC2)c(Cl)c1)c1cccnc1,inconclusive: 2.1 nM
15,Cc1ccc(Cl)c(Nc2ccccc2C(=O)O)c1Cl,inconclusive: 1.1 nM
16,CCOC(=O)C1CCCN(c2nc3ccccc3nc2C(C#N)C(=O)OC(C)C)C1 (stereo not given),inactive
17,CCOC(=O)N1CCN(C(=O)c2csc3c2CCCCC3)CC1,inconclusive: 1.2 nM
18,Cc1noc(C)c1S(=O)(=O)N1CCC(C(=O)N2CCN(C(=O)c3ccco3)CC2)CC1,inconclusive: 1.1 nM
19,CCOC(=O)c1c(NC(=O)Cn2c(=O)oc3ccccc32)oc(C)c1C(C)=O,inconclusive: 1.3 nM

# Grouped by structure, those above with a CF3 group (3)
row,Compound,max dye-equivalent concentration
6,CN1CCN(c2nc3cc(C(F)(F)F)ccc3n3cccc23)CC1,inconclusive: 1.7 nM
8,FC(F)(F)c1cccc(N2CCN(c3nnnn3-c3ccccc3)CC2)c1,inconclusive: 2 nM
6,COCCn1nnnc1CN1CCN(c2cccc(C(F)(F)F)c2)CC1,inconclusive: 1.6 nM

# Reference: PubChem BioAssay AID587 (National Center for Advancing Translational Sciences (NCATS), 2007)
